# From the supplement of paper PMC12595434, “Development of retinoid nuclear receptor pathway antagonists through targeting aldehyde dehydrogenase 1A3” (iScience, 2025)
# By UniProt entry, the sequences of proteins in these tests, tags left out. Where a name states a change or a piece, a line headed by the entry shows the natural chain unless it says otherwise.
# UniProt O95059: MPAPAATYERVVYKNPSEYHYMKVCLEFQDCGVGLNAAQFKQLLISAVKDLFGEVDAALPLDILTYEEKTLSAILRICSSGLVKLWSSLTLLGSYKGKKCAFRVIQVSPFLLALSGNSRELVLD
# UniProt O95336: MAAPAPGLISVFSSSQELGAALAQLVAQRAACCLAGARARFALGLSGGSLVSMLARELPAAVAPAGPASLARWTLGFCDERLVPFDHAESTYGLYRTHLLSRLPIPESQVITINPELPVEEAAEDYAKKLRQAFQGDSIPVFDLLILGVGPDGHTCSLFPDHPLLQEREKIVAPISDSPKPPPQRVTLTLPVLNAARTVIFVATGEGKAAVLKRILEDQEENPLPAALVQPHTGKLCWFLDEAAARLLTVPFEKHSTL
# UniProt O94921: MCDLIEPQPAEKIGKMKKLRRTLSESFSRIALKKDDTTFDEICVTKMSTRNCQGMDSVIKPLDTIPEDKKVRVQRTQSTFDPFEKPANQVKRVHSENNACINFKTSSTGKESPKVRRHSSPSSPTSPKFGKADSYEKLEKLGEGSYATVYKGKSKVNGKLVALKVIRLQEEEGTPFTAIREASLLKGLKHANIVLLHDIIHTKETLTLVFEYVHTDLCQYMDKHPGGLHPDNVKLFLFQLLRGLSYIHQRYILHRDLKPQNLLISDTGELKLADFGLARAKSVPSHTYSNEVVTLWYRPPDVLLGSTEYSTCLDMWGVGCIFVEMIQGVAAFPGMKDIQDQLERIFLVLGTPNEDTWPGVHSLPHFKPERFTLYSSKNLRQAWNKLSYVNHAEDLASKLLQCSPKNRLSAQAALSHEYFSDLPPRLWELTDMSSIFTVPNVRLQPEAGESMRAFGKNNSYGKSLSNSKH
# UniProt O76071: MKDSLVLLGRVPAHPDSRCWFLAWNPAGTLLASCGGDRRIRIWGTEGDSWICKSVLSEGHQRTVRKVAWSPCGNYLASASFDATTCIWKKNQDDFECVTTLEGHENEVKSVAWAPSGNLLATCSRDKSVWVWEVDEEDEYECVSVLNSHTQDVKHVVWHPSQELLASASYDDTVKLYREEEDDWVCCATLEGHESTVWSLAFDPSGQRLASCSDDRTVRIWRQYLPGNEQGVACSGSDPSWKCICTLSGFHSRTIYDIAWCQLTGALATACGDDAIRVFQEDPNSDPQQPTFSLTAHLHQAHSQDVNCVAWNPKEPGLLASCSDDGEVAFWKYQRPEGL
# UniProt P04035: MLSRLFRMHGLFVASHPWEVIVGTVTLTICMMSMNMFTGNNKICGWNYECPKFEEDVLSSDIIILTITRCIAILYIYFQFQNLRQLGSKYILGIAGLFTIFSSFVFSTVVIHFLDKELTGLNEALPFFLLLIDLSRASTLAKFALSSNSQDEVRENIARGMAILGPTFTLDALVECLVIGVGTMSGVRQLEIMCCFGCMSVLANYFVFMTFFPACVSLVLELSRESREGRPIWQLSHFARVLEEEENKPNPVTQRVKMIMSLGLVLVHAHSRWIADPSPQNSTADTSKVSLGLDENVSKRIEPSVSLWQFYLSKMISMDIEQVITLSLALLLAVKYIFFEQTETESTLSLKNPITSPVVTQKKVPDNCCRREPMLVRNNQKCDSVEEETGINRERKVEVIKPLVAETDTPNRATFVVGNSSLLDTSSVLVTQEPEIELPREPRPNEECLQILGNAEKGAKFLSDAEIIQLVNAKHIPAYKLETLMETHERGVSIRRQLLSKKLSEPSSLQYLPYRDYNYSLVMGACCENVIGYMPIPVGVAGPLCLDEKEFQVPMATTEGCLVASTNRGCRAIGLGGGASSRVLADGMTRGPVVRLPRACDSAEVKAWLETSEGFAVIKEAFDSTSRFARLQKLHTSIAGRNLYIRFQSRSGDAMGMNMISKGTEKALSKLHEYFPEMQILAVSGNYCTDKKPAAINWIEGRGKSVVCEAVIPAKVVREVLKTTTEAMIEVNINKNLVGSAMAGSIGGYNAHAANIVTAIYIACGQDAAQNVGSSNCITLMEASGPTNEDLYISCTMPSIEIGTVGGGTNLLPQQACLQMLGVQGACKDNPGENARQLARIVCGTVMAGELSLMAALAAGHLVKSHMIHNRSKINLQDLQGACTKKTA
# UniProt O95544: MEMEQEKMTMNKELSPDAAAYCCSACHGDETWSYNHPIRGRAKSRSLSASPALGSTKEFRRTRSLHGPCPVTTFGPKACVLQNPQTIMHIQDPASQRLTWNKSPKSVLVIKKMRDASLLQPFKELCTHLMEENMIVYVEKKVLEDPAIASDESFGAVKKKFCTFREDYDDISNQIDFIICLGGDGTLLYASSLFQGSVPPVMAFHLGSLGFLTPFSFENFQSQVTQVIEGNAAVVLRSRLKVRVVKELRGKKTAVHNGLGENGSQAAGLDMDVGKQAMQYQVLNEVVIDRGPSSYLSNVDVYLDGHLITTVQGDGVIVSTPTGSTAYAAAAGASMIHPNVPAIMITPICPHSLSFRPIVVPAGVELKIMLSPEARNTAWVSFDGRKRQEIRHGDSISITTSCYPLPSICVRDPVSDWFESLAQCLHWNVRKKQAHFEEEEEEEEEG
# UniProt O75934: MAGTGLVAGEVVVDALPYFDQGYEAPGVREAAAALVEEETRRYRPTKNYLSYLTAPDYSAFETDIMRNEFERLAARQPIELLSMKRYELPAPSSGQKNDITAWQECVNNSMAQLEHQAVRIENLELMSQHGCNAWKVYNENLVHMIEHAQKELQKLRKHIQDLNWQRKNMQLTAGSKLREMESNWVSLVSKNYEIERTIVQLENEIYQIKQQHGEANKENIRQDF
# UniProt O95749: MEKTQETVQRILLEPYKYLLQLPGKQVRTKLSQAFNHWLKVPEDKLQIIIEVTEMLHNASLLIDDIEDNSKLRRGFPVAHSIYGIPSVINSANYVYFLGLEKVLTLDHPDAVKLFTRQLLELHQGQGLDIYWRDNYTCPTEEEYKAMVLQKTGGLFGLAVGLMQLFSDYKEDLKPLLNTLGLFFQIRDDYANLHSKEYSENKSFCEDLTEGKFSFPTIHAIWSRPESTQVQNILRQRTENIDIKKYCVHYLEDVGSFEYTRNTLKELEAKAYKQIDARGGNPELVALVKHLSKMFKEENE
# UniProt O95219: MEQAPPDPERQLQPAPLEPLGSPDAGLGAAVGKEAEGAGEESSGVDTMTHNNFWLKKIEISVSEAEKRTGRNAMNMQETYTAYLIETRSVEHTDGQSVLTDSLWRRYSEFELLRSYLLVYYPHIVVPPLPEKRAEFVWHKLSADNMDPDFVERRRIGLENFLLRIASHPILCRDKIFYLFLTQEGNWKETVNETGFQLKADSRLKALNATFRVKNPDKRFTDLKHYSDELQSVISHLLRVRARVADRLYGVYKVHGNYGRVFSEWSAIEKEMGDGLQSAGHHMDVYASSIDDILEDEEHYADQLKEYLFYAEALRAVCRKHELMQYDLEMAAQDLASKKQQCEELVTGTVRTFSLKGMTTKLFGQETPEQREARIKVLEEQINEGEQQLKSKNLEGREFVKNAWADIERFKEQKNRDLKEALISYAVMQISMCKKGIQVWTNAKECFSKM
# UniProt O75937: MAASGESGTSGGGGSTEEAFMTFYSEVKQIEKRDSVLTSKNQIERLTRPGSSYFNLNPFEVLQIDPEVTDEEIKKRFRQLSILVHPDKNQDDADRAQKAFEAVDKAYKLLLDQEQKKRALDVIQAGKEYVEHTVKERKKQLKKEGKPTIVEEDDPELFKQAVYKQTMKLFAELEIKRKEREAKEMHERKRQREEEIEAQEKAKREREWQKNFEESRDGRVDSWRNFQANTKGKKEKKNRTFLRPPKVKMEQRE
# UniProt O95619, whole entry: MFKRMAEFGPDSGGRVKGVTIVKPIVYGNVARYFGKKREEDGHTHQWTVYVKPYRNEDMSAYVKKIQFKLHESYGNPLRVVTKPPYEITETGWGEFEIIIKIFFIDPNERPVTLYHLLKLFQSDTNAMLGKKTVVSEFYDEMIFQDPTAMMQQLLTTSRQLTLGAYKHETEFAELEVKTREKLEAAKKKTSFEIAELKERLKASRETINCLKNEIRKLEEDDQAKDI
# UniProt P00568: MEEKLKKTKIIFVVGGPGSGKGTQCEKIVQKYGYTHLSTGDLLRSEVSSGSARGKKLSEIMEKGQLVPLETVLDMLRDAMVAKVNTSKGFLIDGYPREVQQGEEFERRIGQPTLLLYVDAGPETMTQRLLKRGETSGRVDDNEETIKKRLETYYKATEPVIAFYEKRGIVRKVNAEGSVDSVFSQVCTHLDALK
# UniProt O76094: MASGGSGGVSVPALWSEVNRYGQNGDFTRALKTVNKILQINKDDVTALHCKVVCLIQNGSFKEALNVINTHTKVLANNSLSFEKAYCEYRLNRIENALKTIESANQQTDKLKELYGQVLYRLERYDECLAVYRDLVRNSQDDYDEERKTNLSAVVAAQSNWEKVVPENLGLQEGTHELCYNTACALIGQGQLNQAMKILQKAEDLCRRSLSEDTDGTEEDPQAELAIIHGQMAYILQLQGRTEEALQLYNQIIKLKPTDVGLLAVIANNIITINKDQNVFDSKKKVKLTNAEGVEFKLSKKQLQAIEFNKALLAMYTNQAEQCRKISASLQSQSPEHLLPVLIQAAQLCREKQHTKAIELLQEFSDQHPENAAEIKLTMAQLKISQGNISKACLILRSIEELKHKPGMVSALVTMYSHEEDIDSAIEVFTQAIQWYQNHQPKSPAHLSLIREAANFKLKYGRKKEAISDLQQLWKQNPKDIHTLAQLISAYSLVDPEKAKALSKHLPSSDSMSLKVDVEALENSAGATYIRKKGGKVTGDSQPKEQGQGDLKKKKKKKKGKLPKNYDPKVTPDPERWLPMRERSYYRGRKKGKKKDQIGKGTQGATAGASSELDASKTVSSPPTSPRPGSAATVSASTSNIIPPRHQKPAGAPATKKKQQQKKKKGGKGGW
# UniProt O95985: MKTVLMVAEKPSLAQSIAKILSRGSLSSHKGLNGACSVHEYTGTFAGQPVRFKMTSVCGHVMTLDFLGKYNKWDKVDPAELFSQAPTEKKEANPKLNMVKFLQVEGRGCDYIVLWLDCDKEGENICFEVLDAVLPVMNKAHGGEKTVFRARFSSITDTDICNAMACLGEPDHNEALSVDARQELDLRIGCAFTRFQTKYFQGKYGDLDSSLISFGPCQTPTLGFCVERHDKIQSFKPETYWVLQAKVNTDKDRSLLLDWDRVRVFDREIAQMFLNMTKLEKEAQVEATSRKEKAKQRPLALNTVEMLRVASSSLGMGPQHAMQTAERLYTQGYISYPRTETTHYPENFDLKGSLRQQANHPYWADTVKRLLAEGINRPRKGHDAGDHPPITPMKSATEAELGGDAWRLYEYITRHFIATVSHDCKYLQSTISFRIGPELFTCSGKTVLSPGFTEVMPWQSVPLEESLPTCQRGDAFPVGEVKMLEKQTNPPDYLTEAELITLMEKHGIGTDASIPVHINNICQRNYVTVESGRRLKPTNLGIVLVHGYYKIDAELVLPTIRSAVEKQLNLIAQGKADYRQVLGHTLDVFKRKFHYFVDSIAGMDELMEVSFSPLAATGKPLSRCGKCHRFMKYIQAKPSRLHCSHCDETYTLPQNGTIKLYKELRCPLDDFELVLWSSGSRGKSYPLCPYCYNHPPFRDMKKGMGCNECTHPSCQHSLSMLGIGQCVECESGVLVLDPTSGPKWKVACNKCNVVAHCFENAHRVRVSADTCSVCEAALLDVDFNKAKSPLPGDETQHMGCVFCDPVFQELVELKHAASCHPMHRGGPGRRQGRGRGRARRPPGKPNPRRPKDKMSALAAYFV
# UniProt O95999: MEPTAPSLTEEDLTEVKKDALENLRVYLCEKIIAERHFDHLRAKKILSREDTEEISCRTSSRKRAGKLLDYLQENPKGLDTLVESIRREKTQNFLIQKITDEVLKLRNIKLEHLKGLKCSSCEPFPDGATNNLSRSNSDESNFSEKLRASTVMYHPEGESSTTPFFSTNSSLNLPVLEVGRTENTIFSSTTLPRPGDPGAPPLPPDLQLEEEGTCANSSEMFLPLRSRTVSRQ
# UniProt O96013: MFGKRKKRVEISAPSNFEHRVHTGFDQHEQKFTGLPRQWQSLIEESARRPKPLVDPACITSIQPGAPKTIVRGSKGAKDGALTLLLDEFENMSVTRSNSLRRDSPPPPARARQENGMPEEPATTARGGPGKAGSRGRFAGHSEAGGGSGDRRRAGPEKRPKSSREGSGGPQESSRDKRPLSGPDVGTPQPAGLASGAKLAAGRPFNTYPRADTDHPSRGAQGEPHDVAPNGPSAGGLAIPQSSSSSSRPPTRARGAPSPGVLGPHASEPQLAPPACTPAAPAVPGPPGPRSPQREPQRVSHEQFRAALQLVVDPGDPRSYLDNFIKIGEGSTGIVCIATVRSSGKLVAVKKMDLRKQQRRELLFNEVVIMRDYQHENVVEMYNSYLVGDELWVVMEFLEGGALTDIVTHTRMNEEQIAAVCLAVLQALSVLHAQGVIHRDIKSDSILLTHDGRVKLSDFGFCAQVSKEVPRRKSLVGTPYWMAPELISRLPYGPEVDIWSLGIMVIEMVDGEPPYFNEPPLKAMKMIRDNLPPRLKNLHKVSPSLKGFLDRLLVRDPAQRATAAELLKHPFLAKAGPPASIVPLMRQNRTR
# This is one part of the list. Single values of this set are uncertain.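 Many melting curves are irregular; where none melted, Tm was taken as 64 °C.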
# Compound: CCc1cnccc1C(=O)Nc1cc2c(cc1F)NC(=O)CC2
# Experiment: melting temperature shift (DMSO Tm minus MBE1-treated Tm) in cellular thermal proteome profiling; higher = less thermal stabilization by MBE1 (negative = stabilized by MBE1)
# Settings: A375
Target,melting temperature shift (MBE1 concentration: 100 nM) [°C],melting temperature shift (MBE1 concentration: 1 uM) [°C]
DHFR (UniProt P00374),-0.147,-0.237
ATP1A1 (UniProt P05023),-0.971,-0.525
UBE4B (UniProt O95155),0.543,0.263
UniProt O95059,-2.4,-1.74
PGLS (UniProt O95336),-0.142,-0.425
POP4 (UniProt O95707),1.51,1.81
GNAI2 (UniProt P04899),-0.738,0.201
UniProt P06493,0.907,0.458
CST3 (UniProt P01034),-1.47,-1.94
PFTK1 (UniProt O94921),0.545,0.153
EIF4E (UniProt P06730),-0.825,0.604
CIAO1 (UniProt O76071),2.59,-1.3
UniProt P04035,-2.16,0.568
APOB (UniProt P04114),-2.63,-2.8
UniProt O75923,-1.92,0.649
NADK (UniProt O95544),-0.196,2.75
SOGA1 (UniProt O94964),-0.768,-0.641
LTN1 (UniProt O94822),0.0988,-0.108
ECD (UniProt O95905),0.69,0.0977
PRKD3 (UniProt O94806),1.2,0.794

Target,melting temperature shift (MBE1 concentration: 100 nM) [°C],melting temperature shift (MBE1 concentration: 1 uM) [°C]
ITGAV (UniProt P06756),-4.97,-3.3
PCCB (UniProt P05166),-1.64,0.657
BCAS2 (UniProt O75934),-0.847,-0.805
IPO7 (UniProt O95373),0.421,0.537
UniProt P02792,-4.09,-4.09
GGPS1 (UniProt O95749),-0.443,-0.148
ICAM1 (UniProt P05362),-0.2,-2.42
GLRX3 (UniProt O76003),0.116,-0.611
SNX4 (UniProt O95219),0.568,-0.275
DNAJC8 (UniProt O75937),-0.403,0.525
EYA4 (UniProt O95677),-2.44,-1.44
RPLP0 (UniProt P05388),-0.531,0.244
ZFYVE9 (UniProt O95405),0.525,-0.189
CDS2 (UniProt O95674),0.627,0.705
TDP2 (UniProt O95551),1.7,0.409
FLOT1 (UniProt O75955),-0.922,1.31
RAF1 (UniProt P04049),-0.353,0.0941
FBXO21 (UniProt O94952),0.702,0.348
ENO1 (UniProt P06733),-5.2,-2.65
ADA (UniProt P00813),-2.23,-1.17

# Part of the list above, as tab-separated lines:
Target	melting temperature shift (MBE1 concentration: 100 nM) [°C]	melting temperature shift (MBE1 concentration: 1 uM) [°C]
APOB (UniProt P04114)	-2.63	-2.8
UniProt O75923	-1.92	0.649
NADK (UniProt O95544)	-0.196	2.75
SOGA1 (UniProt O94964)	-0.768	-0.641
LTN1 (UniProt O94822)	0.0988	-0.108

# (continued)

Target,melting temperature shift (MBE1 concentration: 100 nM) [°C],melting temperature shift (MBE1 concentration: 1 uM) [°C]
TGFB1 (UniProt P01137),0.287,-1.23
EGFR (UniProt P00533),-0.577,0.404
LETM1 (UniProt O95202),-0.765,0.393
YEATS4 (UniProt O95619),0.14,-0.159
AK1 (UniProt P00568),-0.0183,-0.403
MTA2 (UniProt O94776),-0.658,-0.08
MAP4K4 (UniProt O95819),0.763,0.598
GSN (UniProt P06396),-0.557,-0.0335
AP2A2 (UniProt O94973),-0.391,0.525
SRP72 (UniProt O76094),-0.334,-0.16
TOP3B (UniProt O95985),0.226,-0.421
FTH1 (UniProt P02794),-3.9,1.55
ISG15 (UniProt P05161),0.714,-0.281
UBXN7 (UniProt O94888),-1.19,0.427
AGFG2 (UniProt O95081),-0.301,0.0705
EML2 (UniProt O95834),-0.181,0.107
BCL10 (UniProt O95999),-0.721,-0.69
ARL6IP5 (UniProt O75915),-0.858,-0.495
PAK4 (UniProt O96013),0.0366,0.0977
APP (UniProt P05067),-1.56,-0.141
